Measured values taken from PubChem BioAssay AID493014 (National Center for Advancing Translational Sciences (NCATS), 2011).
The list shows a part of the results. Shown are side measurements of this screen, not its main read-out; they come without a call. Compounds called inactive in the main read-out are mostly missing here. Words in brackets tell the shape of the fitted curve; partial curves, single points and poor fits give uncertain potencies.

Assay: qHTS Assay to Find Inhibitors of Chronic Active B-Cell Receptor Signaling
Settings: ABC-DLBCL IkBa-CBG/CBR reporter, luminescence ratio (green luciferase fused to IkBa over red control in TMD8 lymphoma cells), 4 h
In short: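 TMD8 ABC-DLBCL cells carrying doxycycline-inducible green luciferase fused to IkappaBalpha plus unfused red luciferase were exposed to compounds (up to 46 uM) for 4 hrs at 37C. Activity came from the overlap-corrected green/red luminescence ratio.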

[1] = measured here: CBR red luminescence, cell number
[2] = measured here: IkBa-CBG green luminescence

Compound | AC50 [1] | AC50 [2]
COC(=O)C1=C(C)OC(N)=C(C#N)C1c1cc(C)sc1C (configuration not stated) | 7.31 µM [falling, partial curve, poor fit] | –
C[C@H](CO)N1C[C@H](C)[C@@H](CN(C)C(=O)Nc2ccc3c(c2)OCO3)Oc2c(NC(=O)C3CC3)cccc2C1=O | 13 µM [rising, partial curve, poor fit] | –
Cc1cccc(CSc2nc3ccccc3c(=O)n2C)c1 | 3.66 µM [rising, partial curve, poor fit] | –
CCn1ncc(Cl)c1C(=O)NC(=S)Nc1ccccc1Br | 14.1 µM [falling, single point] | 28.2 µM [falling, single point]
Cc1ccc(-c2n[nH]c(=S)n2/N=C/c2c(C)[nH]n(-c3ccccc3)c2=O)cc1 | 35.5 µM [falling, single point] | –
Cc1nc(SCC(=O)N2CCNC2=O)c2ccccc2n1 | 25.9 µM [falling, single point] | –
O=[N+]([O-])c1ccccc1NCc1ccccc1Cl | – | 10 µM [falling, partial curve, poor fit]
N#Cc1c(N2C(=O)C3C4C=CC(C4)C3C2=O)sc2c1CCC2 (configuration not stated) | 6.51 µM [rising, single point] | –
Cc1cccn2c(=O)c3cc(C#N)c(=NC(=O)c4cccs4)n(CCCOC(C)C)c3nc12 | 15.8 µM [falling, partial curve, poor fit] | –
O=C(O)c1ccc(Oc2ccccc2)o1 | 8.91 µM [rising, partial curve, poor fit] | –
O=C(COc1ccccc1)N1CCN(S(=O)(=O)c2cccs2)CC1 | 32.6 µM [falling, single point] | –
COc1ccc(NC(=O)c2cccc(-c3ccc(O)cc3)c2)cn1 | 7.08 µM [falling, full curve] | –
COc1ccc2nc(SCC(=O)N(C)C3CCCCC3)[nH]c2c1 | 20.6 µM [falling, partial curve] | –
CN(C(=O)C1CCOC1)c1nnc(-c2ccccn2)s1 (configuration not stated) | 29.1 µM [rising, single point] | –
CC(C)Cn1cc(C(=O)N2CCN(c3ccccn3)CC2)c2c3ccccc3n(C)c2c1=O | 11.2 µM [falling, partial curve, poor fit] | –
Cc1ccc(Nc2nc(-c3ccc(O)c(O)c3)cs2)nc1 | 3.16 µM [falling, partial curve, poor fit] | –
Cc1ccc(NC(=O)c2ccccc2NS(=O)(=O)c2ccc(F)cc2)cc1S(=O)(=O)N1CCCCC1 | 10.3 µM [falling, partial curve, poor fit] | –
O=c1[nH]c(/C=C/c2cccnc2)c([N+](=O)[O-])c(=O)[nH]1 | 22.4 µM [falling, partial curve, poor fit] | –
Cc1ccc(S(=O)(=O)N2CCN(CC(=O)NC3CCCc4ccccc43)CC2)cc1C (configuration not stated) | 16.4 µM [falling, single point] | –
Oc1ccccc1-c1nc(NC2CCCC2)c2ccccc2n1 | 15.8 µM [falling, partial curve] | 11.2 µM [rising, partial curve, poor fit]

Part of the list above in order of SMILES length, high to low:
Compound | AC50 [1] | AC50 [2]
Cc1ccc(-c2n[nH]c(=S)n2/N=C/c2c(C)[nH]n(-c3ccccc3)c2=O)cc1 | 35.5 µM [falling, single point] | –
Cc1ccc(Nc2nc(-c3ccc(O)c(O)c3)cs2)nc1 | 3.16 µM [falling, partial curve, poor fit] | –
Cc1cccc(CSc2nc3ccccc3c(=O)n2C)c1 | 3.66 µM [rising, partial curve, poor fit] | –

Later entries

Compound | AC50 [1] | AC50 [2]
O=C(CCNC(=O)c1ccccc1Cl)Nc1nc2ccccc2s1 | 6.31 µM [falling, partial curve, poor fit] | 12.6 µM [rising, partial curve, poor fit]
Nc1c(C(=O)NC2CCCC2)c2nc3ccccc3nc2n1N | 3.98 µM [falling, partial curve, poor fit] | –
COc1ccc(Cc2nnc(NC(=O)C3CC(=O)N(c4ccccc4C)C3)s2)cc1OC (configuration not stated) | 11.6 µM [falling, partial curve, poor fit] | –
CC(=O)Oc1ccc(C(=O)Nc2ccc(C3(C#N)CCCC3)cc2)cc1 | 1.58 µM [falling, full curve] | –
COCC(C)NC(=O)COc1ccc(Cl)cc1Cl (configuration not stated) | 3.26 µM [rising, partial curve, poor fit] | –
CCN(c1cccc(C)c1)C(C(=O)Nc1ccc(OC)cc1)c1cc2c(cc1[N+](=O)[O-])OCO2 (configuration not stated) | 0.58 µM [rising, full curve, poor fit] | –
O=C(c1ccc(Br)o1)N1N=C(c2ccc(Cl)cc2)CC1c1ccco1 (configuration not stated) | 3.98 µM [rising, full curve, poor fit] | –
Cc1ccc(C)c(OCCCC(C)(C)C(=O)O)c1 | – | 20.6 µM [rising, partial curve, poor fit]
CC12CCC(C/C1=N\N=C1\NC(=O)/C(=C\c3cccc(Br)c3)S1)C2(C)C (configuration not stated) | 0.58 µM [rising, full curve, poor fit] | –
COc1ccccc1N(C)S(=O)(=O)c1ccc(C(=O)OCC(=O)NCc2cccs2)cc1 | 6.31 µM [rising, partial curve, poor fit] | –
O=C(NNC1=NCCCCC1)Nc1cccc(Cl)c1 | 31.6 µM [rising, single point] | –
NC(N)=NS(=O)(=O)c1ccc(NC(=S)NC(=O)c2ccc3c(c2)OCO3)cc1 | 1 µM [falling, full curve, poor fit] | –
N#Cc1cccc(NC(=O)c2nc(-c3ccccc3)n(-c3ccccc3)n2)c1 | 3.55 µM [rising, partial curve] | –
Cc1cc(-c2nnco2)c(C)n1-c1ccc(F)cc1 | 6.31 µM [falling, single point] | –
O=[N+]([O-])c1ccc(/C=C/C2=NN(c3ccccc3)C(c3ccco3)C2)o1 (configuration not stated) | 3.16 µM [rising, full curve, poor fit] | –
O=C(Nc1ccccc1)OCCCCCOC(=O)Nc1ccccc1 | 12.6 µM [rising, partial curve, poor fit] | –
O=C(CC(=O)c1ccccc1)Nc1ccc(Cl)cc1 | 11.2 µM [falling, single point] | –
Cc1cc(C)c(S(=O)(=O)c2cccc(Br)c2C)c(Cl)n1 | 10 µM [rising, partial curve, poor fit] | –
COc1cccc(N/C(SCc2cccc([N+](=O)[O-])c2)=C(/C#N)C(N)=O)c1 | 10 µM [falling, partial curve, poor fit] | –
